Among all 220,000 compounds or so, about 2,400 (1.1%) were called active. Inconclusive results, whose numbers are uncertain, are shown with a selection of clear calls. Calls come from the whole dose curve; as a rule, active = well fitted inhibition curve with a large enough effect; inconclusive = small, poorly fitted or top-dose-only effect, or effect the other way; inactive = no such curve, though single readings can be large or run the other way. Potencies beside an inconclusive call are fits to weak or partial responses and may not hold up. More than one record can exist for a structure, and the calls need not agree.
Assay: qHTS Multiplex Assay to Identify Dual Action Probes in a Cell Model of Huntington: Aggregate Formation (GFP); note: nearly all actives have a fitted effect of over 60% in size
Conditions: PC12 HttQ103-GFP aggregates, Acumen cytometry, 40 h; activity change, negative = inhibition: at 46.1 µM (top of the series) unless noted
Procedure, shortened: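 Steps: seed 1500 PC12 HTTQ103-GFP cells/well; add tebufenozide, 100 nM final; add compound titration; add ATPLite reagent; quantify GFP aggregates by laser scanning cytometry.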
% is set by controls: 0 for no effect and ±100 for the full control effect; potency is the fitted concentration of half-maximal effect.

Structure (SMILES)	Potency	activity change, negative = inhibition
Cc1ccc(C23CC4CC(CC(CC(=O)N5CCOCC5)(C4)C2)C3)cc1	inconclusive: 35.5 µM [inhibitor, single point]	
CCCn1c(=O)c(C(=O)Nc2ccccc2C(=O)OCC)c(O)c2ccccc21	inconclusive: 35.5 µM [inhibitor, single point]	
Nc1ccc(C(=O)OCc2nc3c(ccc4ccccc43)[nH]2)cc1	inconclusive: 0.708 µM [activator, single point]	
NC(=O)COC(=O)c1sc2ccccc2c1Cl		inactive: -2.18%
O=C(Cn1c(=O)n2ncnc2c2c3c(sc21)CCCC3)c1ccccc1	inconclusive: 1.26 µM [activator, single point]	
CN(CC(=O)N1CCN(c2ccccn2)CC1)S(=O)(=O)c1cccc2nsnc12		inactive: 1.85%
COc1ccc(-c2cc(-c3ccc(C)cc3)nc(SCc3nnc(-c4ccccc4)o3)c2C#N)cc1OC	inconclusive: 20 µM [inhibitor, single point]	
CCOC(=O)C1=C(C)C(c2ccc(OC)cc2)NC(=S)N1 (stereo not drawn)	inconclusive: 0.562 µM [inhibitor, full curve, poor fit]	
COc1ccc(OC)c(-c2cc(C(=O)Nc3c(C)nn(Cc4ccccc4)c3C)no2)c1	inconclusive: 14.1 µM [inhibitor, single point]	
COCCNC(=O)c1cc2sc3ccccc3c2s1	inconclusive: 1.26 µM [activator, single point]	
Cc1noc(C)c1S(=O)(=O)Nc1ccc(C(=O)N2CCCCC2)cc1	inconclusive: 1.41 µM [activator, partial curve, poor fit]	
S=C(NCC1CCCO1)Nc1cccc(Cl)c1 (stereo not drawn)	inconclusive: 0.562 µM [activator, partial curve, poor fit]	
CN(C)CCNC(=O)Nc1ccc([N+](=O)[O-])cc1	inconclusive: 20 µM [activator, partial curve, poor fit]	
Cc1cccc(/C(N)=N/OC(=O)c2ccc(Cl)cc2Cl)c1		inactive: -14.6%
CC1=C(C)CC(C(=O)Nc2cccc(Cl)c2)C(C(=O)O)C1 (stereo not drawn)	inconclusive: 1 µM [inhibitor, partial curve]	
O=C(NC(=S)Nc1ccc(Oc2ccccc2)cc1)c1ccc(Cl)cc1	inconclusive: 35.5 µM [inhibitor, single point]	
COc1ccccc1NS(=O)(=O)c1cc(N2Cc3ccccc3C2=N)ccc1N1CCOCC1		inactive: 14.7%
Clc1ccc(Cn2ncc3c(NCc4ccco4)ncnc32)c(Cl)c1	inconclusive: 28.2 µM [inhibitor, single point]	
O=C(N/N=C\c1c(O)ccc2ccccc12)c1ccc(Cn2cccn2)o1	inconclusive: 3.16 µM [inhibitor, full curve]	
c1ccc(-c2csc(N3CCN(c4ccccn4)CC3)n2)cc1	inconclusive: 35.5 µM [inhibitor, single point]	
CC1(C)CC(=O)C2=C(C1)N(c1ncn[nH]1)C(N)=C(C#N)C2c1ccccc1 (stereo not drawn)	inconclusive: 3.98 µM [activator, single point]	
COCCCN1C(=O)C(O)=C(C(=O)c2ccco2)C1c1ccc(Br)cc1 (stereo not drawn)	inconclusive: 17.8 µM [activator, single point]	

Structure (SMILES)	Potency	activity change, negative = inhibition
Cc1nc(N[C@@H](Cc2c[nH]c3ccccc23)C(=O)O)c2oc3ccccc3c2n1	inconclusive: 3.16 µM [activator, single point]	
CCc1ccc(NC(=O)Nc2ccc3c(c2)N(C)C(=O)CS3)cc1	inconclusive: 35.5 µM [inhibitor, single point]	
C/C(CCC(=O)OC[C@H]1O[C@H](C#Cc2ccccc2)C=C[C@@H]1Oc1ccc(C)cc1)=N\OC[C@@H](O)[C@H]1O[C@@H]2OC(C)(C)O[C@@H]2[C@H]1O	inconclusive: 35.5 µM [activator, single point]	
C=C(C)CNC(=S)N=Nc1c(O)[nH]c2ccc([N+](=O)[O-])cc12	inconclusive: 31.6 µM [inhibitor, single point]	
O=C(N/N=C/c1ccc(Br)s1)c1ccncc1	inconclusive: 15.8 µM [inhibitor, single point]	
O=[N+]([O-])c1ccccc1S(=O)(=O)NCCC1=CCCCC1	inconclusive: 17.8 µM [inhibitor, single point]	
Cc1ccc(C)c(-n2nnnc2Sc2nnnn2-c2ccccc2)c1	active: 20 µM	
[O-]/[N+](=C\c1ccccc1)[C@@H]1CCCC[C@@H]1/[N+]([O-])=C/c1ccccc1		inactive: 3.62%
Cc1cc(C)n(C(=O)/C(C#N)=N/Nc2cc(Cl)cc(Cl)c2)n1	active: 12.6 µM	
Cc1nn(CCCC(=O)Nc2cc(Oc3ccccc3)cc([N+](=O)[O-])c2)c(C)c1[N+](=O)[O-]	inconclusive: 3.55 µM [inhibitor, single point]	
CC(NS(=O)(=O)c1ccc(CCC(=O)N2CCN(C)CC2)cc1)c1ccccc1 (stereo not drawn)		inactive: -16.7%
O=C(Nc1ccc2c(c1)OCCO2)c1cc(-c2ccccn2)nc2ccc(Br)cc12		inactive: 2.41% [at 9.22 µM]
CCCN1C(=O)CC(C(=O)OC)=C1C		inactive: 11.1%
C/C(N)=C(/C#N)C(=O)CSc1nnc(SCc2ccc(Cl)cc2)s1	active: 11.2 µM	
CCCCn1c(=O)[nH]c(=O)c2c1nc(-c1cc3c(cc1Br)OCO3)n2C	inconclusive: 1.26 µM [activator, full curve]	
CC1=CC(C)=Nc2ccc(C)cc2N1	active: 0.891 µM	
CCc1cc2c(N3CCN(c4ccccc4)CC3)ncnc2s1	inconclusive: 25.1 µM [inhibitor, single point]	
CCNCCOC(c1ccccc1)c1ccccc1	inconclusive: 5.62 µM [inhibitor, single point]	
CCCCCCOc1ccc(C(=O)NCCCn2ccnc2)cc1	inconclusive: 28.2 µM [inhibitor, single point]	
Cc1ccccc1NC(=O)CC1SCCNC1=O (stereo not drawn)	inconclusive: 35.5 µM [inhibitor, partial curve, poor fit]	
COc1ccc(/C=C(\C#N)C(=O)OCC(=O)NC(=O)NCCC(C)C)cc1		inactive: 19.8%

Looked up above.
For Potency, `CCNCCOC(c1ccccc1)c1ccccc1` is entered as inconclusive: 5.62 µM [inhibitor, single point]
For Potency, `O=[N+]([O-])c1ccccc1S(=O)(=O)NCCC1=CCCCC1` is entered as inconclusive: 17.8 µM [inhibitor, single point]

— PubChem BioAssay AID1688 (National Center for Advancing Translational Sciences (NCATS), 2009)
